Values of other authors as cited in US20030236457A1, “Method of endovascular brain mapping” (priority 2002, published 2003).
At least one compound was matched to its structure with a doubt left.

Conditions: cited from earlier work

CCN(Cc1cccc(S(=O)(=O)[O-])c1)c1ccc(C(=C2C=CC(=[N+](CC)Cc3cccc(S(=O)(=O)[O-])c3)C=C2)c2ccc(O)cc2S(=O)(=O)[O-])cc1.[Na+].[Na+] [FD & C Green #3]
toxicity profile: not severe
